The target of this assay is T1, 56 kDa polypeptide of human platelet heparanase (human) (UniProt Q9Y251).
T1 sequence: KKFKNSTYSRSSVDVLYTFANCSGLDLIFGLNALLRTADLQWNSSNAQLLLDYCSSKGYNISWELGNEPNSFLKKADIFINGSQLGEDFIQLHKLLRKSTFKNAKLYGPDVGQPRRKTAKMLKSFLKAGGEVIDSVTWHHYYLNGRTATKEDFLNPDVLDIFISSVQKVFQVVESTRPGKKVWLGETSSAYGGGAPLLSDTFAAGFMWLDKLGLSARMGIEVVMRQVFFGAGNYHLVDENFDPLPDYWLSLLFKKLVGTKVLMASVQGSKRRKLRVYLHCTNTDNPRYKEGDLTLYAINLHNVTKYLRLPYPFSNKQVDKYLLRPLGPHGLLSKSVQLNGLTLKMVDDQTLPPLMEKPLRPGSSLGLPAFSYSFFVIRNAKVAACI
The assay is described as follows: gel filtration in non-denaturing solvents; co-purification.

These are yes or no findings as the source states them, for the method shown. Binding seen in cells or lysates may run through a third protein. Some entries that bind do so weakly or less than the wild type.

B1: 8 kDa polypeptide of human platelet heparanase (enzyme)
chain: QDVVDLDFFTQEPLHLVSPSFLSVTIDANLATDPRFLILLGSPKLRTLARGLSPAYLRFGGTKTDFLIFDPKKE
modifications: N-terminal Gln23 cyclized to pyrrolidonecarboxylic acid (PCA)
On to B1, for which the binding result is given as “binds”.

The values above are taken from patent publication US6387643.
